Values joined by “and” are separate entries in the source; they are usually repeats but may differ in a detail not shown here. Identical values can stand only once. Further values from the same series stand in other lists.
System: U2OS cells
Experiment: Cell growth assay (IncuCyte confluence over 72 h)
Type: cell-based
Design: key: % of well area covered by cells (confluence)
Conditions: listed as AN2
Outline: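 U2OS cells were grown in DMEM with 10% FBS for 24 h before treatment. Confluence was then tracked by IncuCyte phase imaging over 72 h and expressed as % of well area covered by cells. Each point is the average of three wells.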

Q: Which U2OS cell growth (3 uM, time 12 h) does the source give for `O=c1cc(-c2ccccc2)c2c(O)cc(O)cc2o1` [compound 2] here?
A: 47.3303

Q: And the U2OS cell growth (3 uM, time 14 h)?
A: 60.2503 and 54.9602 and 48.3174

Q: What about the U2OS cell growth (3 uM, time 16 h) of the same compound?
A: 67.2719 and 60.345 and 55.6492

Q: And the U2OS cell growth (3 uM, time 18 h)?
A: 65.8385 and 62.0183 and 52.3569

Q: And the U2OS cell growth (3 uM, time 20 h)?
A: 68.2939 and 61.4907 and 55.3665

Q: And the U2OS cell growth (3 uM, time 22 h)?
A: 69.7247 and 71.1481 and 59.0654

Q: What about the U2OS cell growth (3 uM, time 24 h) of the same compound?
A: 71.5118 and 72.011 and 58.2123

Q: What about the U2OS cell growth (3 uM, time 26 h) of the same compound?
A: 74.6971 and 74.1434 and 62.6924

Q: And the U2OS cell growth (3 uM, time 28 h)?
A: 79.2385 and 79.2925 and 68.5776

Q: What about the U2OS cell growth (3 uM, time 30 h) of the same compound?
A: 81.3865 and 78.444 and 67.74

Q: What about the U2OS cell growth (3 uM, time 32 h) of the same compound?
A: 78.9088 and 81.2118 and 70.9288

Q: And the U2OS cell growth (3 uM, time 34 h)?
A: 79.7336 and 82.5552 and 69.8773

Q: And the U2OS cell growth (3 uM, time 36 h)?
A: 84.1266 and 83.7391 and 74.7579

Q: What about the U2OS cell growth (3 uM, time 38 h) of the same compound?
A: 85.3594 and 84.6235 and 80.7257

Q: And the U2OS cell growth (3 uM, time 40 h)?
A: 90.6298 and 89.6715 and 82.8177

Q: What about the U2OS cell growth (3 uM, time 42 h) of the same compound?
A: 91.4026 and 91.5867 and 86.9515

Q: What about the U2OS cell growth (3 uM, time 44 h) of the same compound?
A: 91.9788 and 92.6416 and 86.3135

Q: And the U2OS cell growth (3 uM, time 46 h)?
A: 89.5194 and 91.2335 and 79.5849

Q: What about the U2OS cell growth (3 uM, time 48 h) of the same compound?
A: 94.5852 and 95.1394 and 91.3356

Q: What about the U2OS cell growth (3 uM, time 50 h) of the same compound?
A: 93.6594 and 94.2364 and 85.1466

Q: What about the U2OS cell growth (3 uM, time 52 h) of the same compound?
A: 94.9989 and 96.9567 and 93.7392

Q: What about the U2OS cell growth (3 uM, time 54 h) of the same compound?
A: 92.1117 and 97.7411 and 88.2021

Q: What about the U2OS cell growth (3 uM, time 56 h) of the same compound?
A: 98.3681 and 98.7929 and 95.4442

Q: And the U2OS cell growth (3 uM, time 58 h)?
A: 96.9677 and 98.7875 and 95.8566

Q: What about the U2OS cell growth (3 uM, time 60 h) of the same compound?
A: 99.2543 and 99.6203 and 98.4047

Q: And the U2OS cell growth (3 uM, time 62 h)?
A: 99.2189 and 99.1209 and 98.7755

Q: And the U2OS cell growth (3 uM, time 64 h)?
A: 99.1725 and 99.2312 and 99.3386

Q: What about the U2OS cell growth (3 uM, time 66 h) of the same compound?
A: 98.8673 and 99.823 and 99.0094

Q: And the U2OS cell growth (3 uM, time 68 h)?
A: 99.7774 and 99.7996 and 99.6577

Q: And the U2OS cell growth (3 uM, time 70 h)?
A: 99.4148 and 99.9601 and 99.5644

Q: What about the U2OS cell growth (3 uM, time 72 h) of the same compound?
A: 99.5184 and 99.9025 and 99.8766

Q: What about the U2OS cell growth (5 uM, time 12 h) of the same compound?
A: 58.3667 and 59.3748 and 59.5417

Q: What about the U2OS cell growth (5 uM, time 14 h) of the same compound?
A: 59.1899 and 56.0347 and 57.3567

Q: And the U2OS cell growth (5 uM, time 16 h)?
A: 64.9176 and 65.5034 and 64.6862

Q: What about the U2OS cell growth (5 uM, time 18 h) of the same compound?
A: 64.8737 and 67.459 and 65.654

Q: What about the U2OS cell growth (5 uM, time 20 h) of the same compound?
A: 65.0583 and 61.9186 and 61.8898

Q: And the U2OS cell growth (5 uM, time 22 h)?
A: 70.1081 and 69.6092 and 70.29

Q: And the U2OS cell growth (5 uM, time 24 h)?
A: 72.4263 and 68.7022 and 68.1645

Q: And the U2OS cell growth (5 uM, time 26 h)?
A: 76.3189 and 75.1556 and 72.288

Q: What about the U2OS cell growth (5 uM, time 28 h) of the same compound?
A: 77.0985 and 76.5762 and 77.1285

Q: What about the U2OS cell growth (5 uM, time 30 h) of the same compound?
A: 79.5134 and 80.4662 and 77.4654

Q: And the U2OS cell growth (5 uM, time 32 h)?
A: 79.4795 and 78.5459 and 81.9491

Q: What about the U2OS cell growth (5 uM, time 34 h) of the same compound?
A: 78.2664 and 86.1963 and 84.2226

Q: What about the U2OS cell growth (5 uM, time 36 h) of the same compound?
A: 82.1073 and 86.138 and 85.1457

Q: And the U2OS cell growth (5 uM, time 38 h)?
A: 82.2171 and 87.0231 and 87.4323

Q: And the U2OS cell growth (5 uM, time 40 h)?
A: 87.6039 and 91.3263 and 89.5129

Q: What about the U2OS cell growth (5 uM, time 42 h) of the same compound?
A: 89.8133 and 92.5442 and 89.9448

Q: What about the U2OS cell growth (5 uM, time 44 h) of the same compound?
A: 89.7969 and 96.5389 and 93.1186

Q: What about the U2OS cell growth (5 uM, time 46 h) of the same compound?
A: 91.4082 and 95.5349 and 92.2577

Q: What about the U2OS cell growth (5 uM, time 48 h) of the same compound?
A: 92.0979 and 96.8453 and 95.0219

Q: And the U2OS cell growth (5 uM, time 50 h)?
A: 92.2626 and 97.6963 and 94.9963

Q: And the U2OS cell growth (5 uM, time 52 h)?
A: 95.8266 and 99.082 and 96.9673

Q: And the U2OS cell growth (5 uM, time 54 h)?
A: 95.3688 and 98.169 and 96.4394

Q: And the U2OS cell growth (5 uM, time 56 h)?
A: 97.3347 and 98.763 and 97.9524

Q: What about the U2OS cell growth (5 uM, time 58 h) of the same compound?
A: 98.1995 and 99.4231 and 98.2095

Q: What about the U2OS cell growth (5 uM, time 60 h) of the same compound?
A: 98.9514 and 99.809 and 99.0075

Q: And the U2OS cell growth (5 uM, time 62 h)?
A: 99.1809 and 99.7739 and 99.1674

Q: What about the U2OS cell growth (5 uM, time 64 h) of the same compound?
A: 98.9136 and 99.7481 and 98.9495

Q: What about the U2OS cell growth (5 uM, time 66 h) of the same compound?
A: 99.2747 and 99.6822 and 99.2362

Q: What about the U2OS cell growth (5 uM, time 68 h) of the same compound?
A: 99.7498 and 99.7893 and 99.7382

Q: What about the U2OS cell growth (5 uM, time 70 h) of the same compound?
A: 99.6222 and 99.9506 and 99.7738

Q: And the U2OS cell growth (5 uM, time 72 h)?
A: 99.9222 and 99.9624 and 99.876

Q: And the U2OS cell growth (10 uM, time 12 h)?
A: 51.0617 and 38.8025 and 46.5429

Q: What about the U2OS cell growth (10 uM, time 14 h) of the same compound?
A: 52.0659 and 37.8652 and 50.9249

Q: What about the U2OS cell growth (10 uM, time 16 h) of the same compound?
A: 58.7346 and 43.8912 and 52.5423

Q: What about the U2OS cell growth (10 uM, time 18 h) of the same compound?
A: 58.5243 and 45.0108 and 56.1075

Q: What about the U2OS cell growth (10 uM, time 20 h) of the same compound?
A: 56.1159 and 45.0556 and 56.595

Q: What about the U2OS cell growth (10 uM, time 22 h) of the same compound?
A: 61.3912 and 49.4998 and 58.1228

Q: And the U2OS cell growth (10 uM, time 24 h)?
A: 67.8342 and 54.0898 and 65.4691

Q: What about the U2OS cell growth (10 uM, time 26 h) of the same compound?
A: 70.5452 and 54.7025 and 63.5804

Q: And the U2OS cell growth (10 uM, time 28 h)?
A: 71.1038 and 55.8489 and 62.8634

Q: And the U2OS cell growth (10 uM, time 30 h)?
A: 76.1344 and 60.197 and 67.6434

Q: What about the U2OS cell growth (10 uM, time 32 h) of the same compound?
A: 77.644 and 63.1438 and 72.2623

Q: What about the U2OS cell growth (10 uM, time 34 h) of the same compound?
A: 81.9269 and 65.1551 and 72.7491

Q: What about the U2OS cell growth (10 uM, time 36 h) of the same compound?
A: 83.8096 and 69.5145 and 77.9628

Q: What about the U2OS cell growth (10 uM, time 38 h) of the same compound?
A: 85.0579 and 70.8093 and 79.5497

Q: And the U2OS cell growth (10 uM, time 40 h)?
A: 87.1841 and 73.8989 and 82.297

Q: What about the U2OS cell growth (10 uM, time 42 h) of the same compound?
A: 89.4752 and 78.3857 and 84.6775

Q: What about the U2OS cell growth (10 uM, time 44 h) of the same compound?
A: 90.8213 and 82.0038 and 86.9963

Q: What about the U2OS cell growth (10 uM, time 46 h) of the same compound?
A: 87.7337 and 79.0012 and 86.7996

Q: And the U2OS cell growth (10 uM, time 48 h)?
A: 95.1611 and 86.212 and 89.6585

Q: What about the U2OS cell growth (10 uM, time 50 h) of the same compound?
A: 93.3146 and 85.5346 and 90.1258

Q: What about the U2OS cell growth (10 uM, time 52 h) of the same compound?
A: 96.1309 and 90.0055 and 93.1913

Q: And the U2OS cell growth (10 uM, time 54 h)?
A: 96.3062 and 91.0732 and 93.4648

Q: What about the U2OS cell growth (10 uM, time 56 h) of the same compound?
A: 97.1457 and 92.8802 and 95.1761

Q: What about the U2OS cell growth (10 uM, time 58 h) of the same compound?
A: 98.3214 and 95.9305 and 96.2979

Q: What about the U2OS cell growth (10 uM, time 60 h) of the same compound?
A: 98.3167 and 97.5634 and 97.7159

Q: And the U2OS cell growth (10 uM, time 62 h)?
A: 99.0391 and 96.3875 and 98.2911

Q: What about the U2OS cell growth (10 uM, time 64 h) of the same compound?
A: 99.2508 and 97.1285 and 98.8507

Q: What about the U2OS cell growth (10 uM, time 66 h) of the same compound?
A: 99.3631 and 98.1565 and 98.9392

Q: And the U2OS cell growth (10 uM, time 68 h)?
A: 99.4876 and 98.0047 and 99.1042

Q: What about the U2OS cell growth (10 uM, time 70 h) of the same compound?
A: 99.6136 and 99.1959 and 99.4943

Q: And the U2OS cell growth (10 uM, time 72 h)?
A: 99.7391 and 99.7947 and 99.9157

Reference: article PMC11589570, “Critical assessment of LC3/GABARAP ligands used for degrader development and ligandability of LC3/GABARAP binding pockets” (Nature Communications, 2024)
